These are yes or no findings as the source states them, for the method shown. Binding seen in cells or lysates may run through a third protein. Some binding calls cover weakened binding; strength is not graded here.
Experiments:
[1] = target: BiP/GRP78 (endogenous) (human (endogenous in human HeLa cells)) (UniProt P11021); experiment: co-IP with BiP/GRP78 antibodies, HeLa cells infected with Ad.M4 (FIG. 11A)
[2] = target: BiP/GRP78 (endogenous) (human (endogenous in human HeLa cells)) (UniProt P11021); experiment: co-IP with BiP/GRP78 antibodies after adenovirus transduction
[3] = target: BiP/GRP78 (endogenous) (human (endogenous in human HeLa cells)) (UniProt P11021); experiment: summary of the co-IP experiments of Example 2

Sequences of proteins named here, by UniProt entry; tags and fusion partners are left off. A change or cut given only in a name is not applied to a line headed by its entry. Residues count along the entry.
UniProt P11021, residues 19-654: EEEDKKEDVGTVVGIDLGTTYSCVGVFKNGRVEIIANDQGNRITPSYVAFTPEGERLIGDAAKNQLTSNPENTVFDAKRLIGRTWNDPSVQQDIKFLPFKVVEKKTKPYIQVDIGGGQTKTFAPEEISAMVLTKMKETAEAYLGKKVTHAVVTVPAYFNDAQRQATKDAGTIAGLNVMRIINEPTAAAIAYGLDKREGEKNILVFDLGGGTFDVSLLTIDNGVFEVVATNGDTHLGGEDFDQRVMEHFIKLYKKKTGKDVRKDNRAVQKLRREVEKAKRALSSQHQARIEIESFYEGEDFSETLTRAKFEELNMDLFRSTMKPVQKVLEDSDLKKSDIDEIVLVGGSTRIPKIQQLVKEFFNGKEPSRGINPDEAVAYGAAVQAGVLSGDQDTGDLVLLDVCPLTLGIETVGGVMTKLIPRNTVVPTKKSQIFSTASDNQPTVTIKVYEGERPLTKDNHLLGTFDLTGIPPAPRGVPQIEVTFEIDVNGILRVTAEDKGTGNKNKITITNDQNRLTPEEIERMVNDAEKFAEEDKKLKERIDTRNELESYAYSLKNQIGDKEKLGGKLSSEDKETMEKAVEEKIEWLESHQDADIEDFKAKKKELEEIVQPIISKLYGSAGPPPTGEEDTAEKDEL
UniProt Q13007: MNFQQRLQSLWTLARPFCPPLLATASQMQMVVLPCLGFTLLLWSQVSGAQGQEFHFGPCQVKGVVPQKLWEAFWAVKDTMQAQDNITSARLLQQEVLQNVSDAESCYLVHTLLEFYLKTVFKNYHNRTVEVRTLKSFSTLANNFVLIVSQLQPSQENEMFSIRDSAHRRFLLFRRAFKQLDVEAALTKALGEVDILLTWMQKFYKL

Measured: binding

M4 (MDA-7/IL-24 deletion mutant, amino acids 104-206, untagged) (from UniProt Q13007 104-206)
binds: all assays above
